Results taken from PubChem BioAssay (Tox21).
Values joined by “and” are separate entries in the source; they are usually repeats but may differ in a detail not shown here. Identical values can stand only once. The inconclusive results got no clear call from the source; some entries with a clear call stand among them for comparison. Where the call is inconclusive, the potency comes from a doubtful curve fit. Some structures have more than one record in an assay (separate samples or runs), and their calls can disagree. Active and inactive are the calls of the source. The call rests on the fitted dose curve; in most records, active means well fitted inhibition curve with a large enough effect in the repeat runs; inconclusive means weak or mixed curves; inactive means no such curve, though single readings can be large or run the other way.

Chains of the proteins cited; added tags and fusions are not shown.
UniProt P11712, whole entry, looked up: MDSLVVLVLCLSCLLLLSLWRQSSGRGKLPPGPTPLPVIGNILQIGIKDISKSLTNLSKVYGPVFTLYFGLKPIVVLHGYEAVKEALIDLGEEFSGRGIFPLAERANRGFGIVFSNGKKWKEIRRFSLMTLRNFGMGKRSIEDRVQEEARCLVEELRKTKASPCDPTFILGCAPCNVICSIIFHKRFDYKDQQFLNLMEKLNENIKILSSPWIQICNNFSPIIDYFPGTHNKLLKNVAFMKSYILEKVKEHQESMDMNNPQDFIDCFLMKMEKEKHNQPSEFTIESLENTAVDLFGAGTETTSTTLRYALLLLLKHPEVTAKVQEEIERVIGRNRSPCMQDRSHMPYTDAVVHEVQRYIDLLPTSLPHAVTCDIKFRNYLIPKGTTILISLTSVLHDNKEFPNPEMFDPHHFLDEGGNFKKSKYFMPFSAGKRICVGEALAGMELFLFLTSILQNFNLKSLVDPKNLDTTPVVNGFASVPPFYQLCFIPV
UniProt P05177, whole entry, looked up: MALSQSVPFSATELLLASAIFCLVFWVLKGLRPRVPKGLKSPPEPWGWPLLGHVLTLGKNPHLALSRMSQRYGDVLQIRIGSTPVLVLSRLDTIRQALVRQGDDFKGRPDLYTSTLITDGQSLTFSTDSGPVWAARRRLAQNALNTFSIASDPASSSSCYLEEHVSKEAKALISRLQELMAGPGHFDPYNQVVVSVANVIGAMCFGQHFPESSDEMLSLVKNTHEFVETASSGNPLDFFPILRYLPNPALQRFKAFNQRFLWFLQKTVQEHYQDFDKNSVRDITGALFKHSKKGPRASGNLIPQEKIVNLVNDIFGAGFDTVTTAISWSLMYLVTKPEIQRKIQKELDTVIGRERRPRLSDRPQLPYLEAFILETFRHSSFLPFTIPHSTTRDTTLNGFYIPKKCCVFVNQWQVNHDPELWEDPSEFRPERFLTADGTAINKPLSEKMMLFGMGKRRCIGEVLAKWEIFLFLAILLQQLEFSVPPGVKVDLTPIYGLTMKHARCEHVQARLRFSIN

molecular target: Cytochrome P450 2C9 (Homo sapiens) (UniProt P11712); experiment: Cytochrome P450 Family 2 Subfamily C Member 9 (CYP2C9) small molecule antagonists: luciferase reporter qHTS assay (AID 1671198); details: P450-Glo CYP2C9 enzyme assay, luciferin luminescence; series mostly up to 115 µM; activity change, negative = inhibition: at the top concentration
In short: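 CYP2C9 activity was measured with a P450-Glo proluciferin substrate. Enzyme–substrate mix was held with compound for 10 min at room temperature, then NADPH regeneration solution was added for 1 h at 37C. Luciferin product was read as luminescence.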
Further: nearly all actives have a fitted effect of over 50% in size.
On the % scale 0 is the no-effect control and ±100 the full control effect; potency means the concentration at half of the fitted maximal effect.

Row | Structure (SMILES) | Potency | activity change, negative = inhibition
1 | CC1(C)C(C=C(Cl)Cl)C1C(=O)OC(C#N)c1cccc(Oc2ccccc2)c1 (configuration not stated) | active: 5.64 µM and active: 12.3 µM | –
2 | Clc1cc2c(cc1Cl)Oc1cc(Cl)c(Cl)cc1O2 | – | inactive: 2.52% [at 0.435 µM]
3 | CCOC(=O)C(O)(c1ccc(Cl)cc1)c1ccc(Cl)cc1 | active: 10.1 µM and active: 7.96 µM | –
4 | NCC(O)c1ccc(O)cc1 (configuration not stated) | inactive | –
5 | Clc1ccc(C(c2ccc(Cl)cc2)C(Cl)Cl)cc1 | active: 5.11 µM and active: 6.33 µM | –
6 | CN(C)CCO | inactive | –
7 | COP(=O)(OC)O/C(=C\Cl)c1cc(Cl)c(Cl)cc1Cl | active: 44.8 µM | –
8 | CCN1CCC2(CC1)COc1cc3c(cc12)N(C(=O)c1ccc(-c2ccc(-c4nnc(C)o4)cc2C)cc1)CC3 | inconclusive: 29.3 µM [inhibitor, partial curve] | –
9 | O=Cc1ccccc1 | – | inactive: -12.8%
10 | Clc1ccc(-c2ccc(Cl)c(Cl)c2Cl)c(Cl)c1Cl | active: 17 µM | –
11 | CCN(CC)C(=S)S | inconclusive: 35.9 µM [inhibitor, partial curve, poor fit] | –
12 | O=c1nc(O)n(Cl)c(=O)n1Cl | inactive | –
13 | O=NN1CCCCC1 | inconclusive: 56.1 µM [inhibitor, partial curve] | –
14 | O=C(Nc1ccccc1-c1ccc(Cl)cc1)c1cccnc1Cl | – | inactive: -13.9%
15 | Nc1ccccc1-c1ccccc1 | active: 31.5 µM | –
16 | CCC(C)c1cccc(C(C)CC)c1O (configuration not stated) | active: 15.9 µM | –
17 | Oc1ccc(C2(c3ccc(O)cc3)c3ccccc3-c3ccccc32)cc1 | active: 20 µM | –
18 | O=[N+]([O-])c1c(Cl)c(Cl)cc(Cl)c1Cl | inconclusive: 71 µM [inhibitor, partial curve] | –

Row | Structure (SMILES) | Potency | activity change, negative = inhibition
19 | CCC[CH2][Sn]([Cl])([Cl])[CH2]CCC | inconclusive: 39.9 µM [inhibitor, partial curve] | –
20 | CCOP(=O)(OCC)Oc1nc(Cl)c(Cl)cc1Cl | active: 35.4 µM | –
21 | CN=CNc1ccc(C)cc1C | – | inactive: -15.4%
22 | C=CC(N)=O | inconclusive: 63.5 µM [inhibitor, partial curve, poor fit] | –
23 | CCCCCCCCCCCCCCCl | – | inactive: -11.1%
24 | Cn1c(CCCC(=O)O)nc2cc(N(CCCl)CCCl)ccc21 | – | inactive: -0.792% [at 53 µM]
25 | NNC(=S)NN | active: 65 µM and inconclusive: 63.3 µM [inhibitor, partial curve, poor fit] | –
26 | Brc1cccc(-c2ccccc2)c1 | inconclusive: 71.5 µM [inhibitor, partial curve, poor fit] | –
27 | CNC(=O)N(C)c1nnc(C(C)(C)C)s1 | inconclusive: 39.9 µM [inhibitor, partial curve] and inactive | –
28 | CNC(=O)Oc1ccccc1C1OCCO1 | inconclusive: 35.4 µM [inhibitor, partial curve] | –
29 | CC1(C)CN=C(NN=C(/C=C/c2ccc(C(F)(F)F)cc2)/C=C/c2ccc(C(F)(F)F)cc2)NC1 | inconclusive: 17.8 µM [inhibitor, full curve] | –
30 | OCC(c1ccc(Cl)cc1)c1ccc(Cl)cc1 | active: 12.6 µM | –
31 | CCN(C(C)=O)c1cccc(-c2ccnc3c(C#N)cnn23)c1 | inconclusive: 27.5 µM [inhibitor, partial curve] | –
32 | Cc1cc(Cl)ccc1OCCCC(=O)O | inconclusive: 73.8 µM [inhibitor, partial curve] and inconclusive: 62.7 µM [inhibitor, partial curve] | –
33 | CCCCC(CC)COC(=O)Cl (configuration not stated) | inconclusive: 89.6 µM [inhibitor, partial curve, poor fit] | –
34 | CCCCCCC[CH2][Sn]([Cl])([Cl])[CH2]CCCCCCC | inconclusive: 20 µM [inhibitor, full curve] | –
35 | CCC[CH2][Sn]([CH2]CCC)([CH2]CCC)[O][Sn]([CH2]CCC)([CH2]CCC)[CH2]CCC | inconclusive: 1.96 µM [inhibitor, partial curve] | –
36 | CC(=O)c1cc(C(C)(C)C)cc2c1CCC2(C)C | inconclusive: 11.2 µM [inhibitor, full curve] | –

molecular target: Cytochrome P450 1A2 (Homo sapiens) (UniProt P05177); experiment: Cytochrome P450 Family 1 Subfamily A Member 2 (CYP1A2) small molecule antagonists: luciferase reporter qHTS assay (AID 1671199); details: P450-Glo CYP1A2 enzyme, luciferin luminescence, 1 h; series mostly up to 115 µM; activity change, negative = inhibition: at the top concentration
In short: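 Compounds were incubated with CYP1A2 and a luminogenic proluciferin substrate for 10 min at room temperature before the reaction was started with NADPH regeneration solution. After 1 h, detection reagent was added and light output, proportional to CYP activity, was recorded.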

Row | Structure (SMILES) | Potency
37 | CC1(C)C(C=C(Cl)Cl)C1C(=O)OC(C#N)c1cccc(Oc2ccccc2)c1 (configuration not stated) | inconclusive: 31.7 µM [inhibitor, full curve] and inactive
38 | Clc1cc2c(cc1Cl)Oc1cc(Cl)c(Cl)cc1O2 | inconclusive: 0.195 µM [inhibitor, partial curve]
39 | Clc1ccc(C(c2ccc(Cl)cc2)C(Cl)Cl)cc1 | active: 6.43 µM and active: 8.94 µM
40 | CCN(CC)C(=S)S | active: 40.3 µM and inconclusive: 70.6 µM [inhibitor, partial curve] and inconclusive: 35.6 µM [inhibitor, partial curve]
41 | O=c1nc(O)n(Cl)c(=O)n1Cl | inconclusive: 44.8 µM [inhibitor, partial curve]
42 | CCC[CH2][Sn]([Cl])([Cl])[CH2]CCC | inconclusive: 71 µM [inhibitor, partial curve]
43 | C=CC(N)=O | active: 35.7 µM and inactive
44 | CCCCCCCCCCCCCCCl | inconclusive: 40.1 µM [inhibitor]
45 | CNC(=O)N(C)c1nnc(C(C)(C)C)s1 | inconclusive: 39.9 µM [inhibitor, partial curve]
46 | CC1(C)CN=C(NN=C(/C=C/c2ccc(C(F)(F)F)cc2)/C=C/c2ccc(C(F)(F)F)cc2)NC1 | inconclusive: 11.2 µM [inhibitor, full curve]
47 | CCCCC(CC)COC(=O)Cl (configuration not stated) | inactive
